Residue numbers refer to the chain shown, from its start. No constants are given. Whether binding was seen depends on the method and setting. Binding seen in cells or lysates may run through a third protein. Some results given as binding are weak or reduced against the parent protein; the word gives no strength.
Columns and labels:
[1] = target: T1, membrane palmitoylated protein 2 (MPP2), wild type (human) (UniProt Q14168); assay: co-IP; cell lysate supernatant incubated with anti-MPP2 antibody at 4 °C overnight, protein A/G Sepharose beads, eluted with SDS loading buffer, western blotting
T1 sequence: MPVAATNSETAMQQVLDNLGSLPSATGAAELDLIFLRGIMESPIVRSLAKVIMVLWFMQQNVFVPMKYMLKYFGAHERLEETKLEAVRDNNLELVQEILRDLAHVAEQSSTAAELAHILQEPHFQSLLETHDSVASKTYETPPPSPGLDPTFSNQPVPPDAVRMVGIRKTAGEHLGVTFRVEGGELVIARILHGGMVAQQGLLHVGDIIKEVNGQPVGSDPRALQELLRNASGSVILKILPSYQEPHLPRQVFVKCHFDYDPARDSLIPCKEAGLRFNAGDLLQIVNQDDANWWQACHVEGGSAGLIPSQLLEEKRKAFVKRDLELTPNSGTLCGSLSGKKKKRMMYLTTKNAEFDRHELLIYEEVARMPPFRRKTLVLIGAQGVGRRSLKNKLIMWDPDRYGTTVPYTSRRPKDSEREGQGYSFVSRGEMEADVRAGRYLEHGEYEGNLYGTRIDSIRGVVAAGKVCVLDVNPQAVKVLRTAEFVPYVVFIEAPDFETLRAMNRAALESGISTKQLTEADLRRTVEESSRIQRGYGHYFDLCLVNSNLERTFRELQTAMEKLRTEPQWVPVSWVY

The chains behind the UniProt entries cited, without tags or fusion partners.
UniProt P68104: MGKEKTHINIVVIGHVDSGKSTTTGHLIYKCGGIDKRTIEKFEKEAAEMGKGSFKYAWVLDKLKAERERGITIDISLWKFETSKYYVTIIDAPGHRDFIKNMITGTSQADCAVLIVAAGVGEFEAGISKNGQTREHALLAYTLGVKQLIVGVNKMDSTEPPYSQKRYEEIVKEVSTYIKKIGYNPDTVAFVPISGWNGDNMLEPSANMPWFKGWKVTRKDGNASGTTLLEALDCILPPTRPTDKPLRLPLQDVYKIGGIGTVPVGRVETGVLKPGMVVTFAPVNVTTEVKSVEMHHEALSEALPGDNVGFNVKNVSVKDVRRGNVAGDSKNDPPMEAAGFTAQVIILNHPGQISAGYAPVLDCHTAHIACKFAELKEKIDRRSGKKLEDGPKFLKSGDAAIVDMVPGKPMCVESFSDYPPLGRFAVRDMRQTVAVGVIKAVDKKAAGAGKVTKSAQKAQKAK
UniProt P07355: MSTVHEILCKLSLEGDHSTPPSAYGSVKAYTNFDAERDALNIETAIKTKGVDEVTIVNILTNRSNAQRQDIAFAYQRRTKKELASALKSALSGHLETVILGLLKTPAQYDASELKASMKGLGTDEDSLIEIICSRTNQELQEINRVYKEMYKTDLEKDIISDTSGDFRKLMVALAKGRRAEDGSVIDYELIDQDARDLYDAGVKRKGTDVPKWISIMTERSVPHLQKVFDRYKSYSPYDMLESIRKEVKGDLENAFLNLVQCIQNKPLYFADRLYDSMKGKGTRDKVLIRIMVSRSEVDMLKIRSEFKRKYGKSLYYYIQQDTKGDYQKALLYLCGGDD

[2] = target: T2, membrane palmitoylated protein 2 (MPP2) p.K315N (human) (UniProt Q14168); assay: as above
T2 sequence: T1 sequence with K315N

| Substance | binding [1] | binding [2] |
| --- | --- | --- |
| EEF1A1 (from UniProt P68104 1-462) | binds | – |
| annexin A2 (ANXA2) (from UniProt P07355 1-339) | binds | binds |

— publication PMC10616125
